# PubChem BioAssay AID504786 – Drosophila RNAi Screening Center, 2011
# Purpose: 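Fly genes required for HIF-dependent transcription when hypoxia is mimicked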 (primary screen)
# System: Drosophila S2 cells with a stable HIF luciferase reporter
# Reagent: long dsRNA against Drosophila genes, about 0.2 µg dsRNA per well of a 384-well plate
# Timing: three days of knock-down, then 20 h of DFO before reading
# Conditions: desferrioxamine (DFO) at 100 µM, an iron chelator that mimics hypoxia, for 20 h
# Detection: 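HIF reporter luminescence in cells given 100 µM DFO for 20 h, using the mouse ldh-a hypoxia-response element, scored as per-plate z-scores; higher means greater loss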
# Direction: z-score: higher = stronger loss of HIF reporter signal
# The deposit covers about 21,000 reagents; this is an unselected part of those with a known target gene and a result. 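Primary screen; positive scores mean lost reporter signal, so the sign may be inverted from the usual convention.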 Names joined by + are all predicted targets of the reagent.
Gene,dsRNA,"z-score, replicate 1","z-score, replicate 2"
CG44251,DRSC06856,-0.3,0
CG15143,DRSC02444,-0.2,-1
Mlf,DRSC07472,0.7,3.4
CG33158,DRSC09708,-0.4,-0.4
CG33158,DRSC09709,-0.2,-0.4
CG33158,DRSC10438,-0.2,-0.5
CG2906,DRSC06841,-0.3,-0.7
CG6041,DRSC18396,-0.3,-0.5
Nup50,DRSC06827,-0.4,-0.7
mthl7,DRSC10852,0,-0.4
Ir7g,DRSC18008,-0.1,0.6
Stt3A,DRSC20514,-0.3,-0.5
CG17618 (retired record) + CG45049,DRSC16163,-0.1,-0.3
CG8569,DRSC07214,-0.1,-0.6
CG3198,DRSC18292,0.2,0.1
CG10341,DRSC02040,-0.4,-0.3
CG4363,DRSC04465,-0.2,-0.3
RpL38,DRSC07818,7.6,5.6
LManII,DRSC01986,-0.3,-0.6
Tsp5D,DRSC18380,-0.2,-0.4
CG6094,DRSC02927,-0.4,0
jdp,DRSC16975,-0.3,-0.1
Trhn,DRSC08621,-0.2,0.5
moody,DRSC18515,-0.4,-0.6
fend,DRSC17601,-0.5,-0.2
fend,DRSC17867,-0.2,1
CG9338,DRSC03213,-0.3,-1.3
Npc2h,DRSC14297,-0.4,-0.4
Chi,DRSC04602,-0.4,-0.8
CG13603,DRSC14606,-0.1,-0.1
CG42296,DRSC00394,-0.2,-0.3
Nph,DRSC16342,-0.5,-0.9
CG8306,DRSC07141,-0.3,-0.2
dmpd,DRSC06092,-0.4,-0.5
CG13068,DRSC09951,-0.4,0
Nmd3,DRSC18687,-0.4,0.4
CycH,DRSC11861,-0.3,-0.6
CG17470,DRSC02621,-0.3,-0.2
ind,DRSC11355,4.8,3
ms(3)K81,DRSC14746,-0.3,0
CG10102 (retired record),DRSC05963,1,1.5
CG10459,DRSC05991,-0.3,-0.3
CG13998,DRSC02330,-0.3,-0.3
rno,DRSC08584,0.1,-0.1
CG5103,DRSC10481,-0.3,-0.3
CG30269,DRSC04158,-0.2,0
CG33460,DRSC05570,-0.2,-0.2
puf,DRSC15875,-0.4,-0.6
CtsL1,DRSC05462,-0.3,0
CtsL1,DRSC07363,-0.3,-0.6
Pop5,DRSC10074,-0.1,0.2
CG14374,DRSC14834,-0.2,-0.4
CG16865,DRSC01904,-0.3,0.7
raw,DRSC03599,0.9,0.2
raw,DRSC03600,0.1,-0.1
CG8405,DRSC05599,-1.2,-0.3
CG8405,DRSC07166,-0.4,-0.1
Desat1,DRSC16668,0.1,0
Sos,DRSC03439,-0.2,1.9
Pgam5,DRSC18551,-0.3,-0.4
CG33125,DRSC00145,-0.2,0
c(3)G,DRSC15245,-0.1,0.2
ko,DRSC11893,-0.3,-0.1
Acsf2,DRSC02172,-0.2,-0.2
CG16952,DRSC19759,-0.3,0.7
Hn,DRSC11184,-0.4,-0.6
ttm2,DRSC08268,-0.3,-0.3
mu2,DRSC08726,-0.2,-0.3
CG4404,DRSC19897,-0.3,-0.9
CG8360,DRSC03085,-0.3,-0.6
obst-A,DRSC20543,-0.1,-0.2
CG3117,DRSC00568,-0.1,0.1
CG4459,DRSC15582,-1.1,-0.1
CG34203,DRSC03855,-0.3,-0.3
stol,DRSC01956,7.4,-0.6
Prx3,DRSC15883,-0.3,-0.3
Ubc84D,DRSC12610,-0.4,-0.8
Atx2,DRSC15727,5.2,5.4
Tom40,DRSC18796,0.9,0.5
CG1958,DRSC18196,-0.3,-0.7
CG11384,DRSC18628,-0.3,-0.3
CG7029,DRSC16177,-0.2,0.3
mRpL1,DRSC16251,1,2.1
CG15362,DRSC00392,0,-0.5
row,DRSC07076,0.3,0.5
row,DRSC07077,1.3,1.4
Lcp65Ad,DRSC11211,-0.4,0.1
Den1,DRSC07195,-0.2,-0.3
CG14625,DRSC18633,-0.4,-0.2
CG4073,DRSC15542,-0.1,-0.5
CG34324,DRSC19502,-0.2,0.4
PIG-C,DRSC08241,-0.1,-0.4
CG31077,DRSC13805,-0.4,-0.4
Porin2,DRSC02584,-0.3,0.1
Prosbeta3,DRSC16801,6.1,4.6
Acsx4,DRSC14311,-0.7,-0.2
amos,DRSC03484,-0.3,-0.4
CG31229,DRSC13309,2.2,2.9
tra,DRSC11405,-0.2,-0.3
TwdlQ,DRSC14745,0,-0.6
CG30460,DRSC06559,-0.1,0
CG30460,DRSC06560,4.2,2.4
CG42809 + CG42810,DRSC02532,-0.3,-0.6
CG42809 + CG42810,DRSC02533,-0.1,-0.3
heix,DRSC03542,-0.1,0.4
CG17493,DRSC03798,-0.2,0.6

A run of entries taken from the entries so far, as a working copy:
Gene,dsRNA,"z-score, replicate 1","z-score, replicate 2"
PIG-C,DRSC08241,-0.1,-0.4
CG31077,DRSC13805,-0.4,-0.4
Porin2,DRSC02584,-0.3,0.1
Prosbeta3,DRSC16801,6.1,4.6
Acsx4,DRSC14311,-0.7,-0.2
amos,DRSC03484,-0.3,-0.4
CG31229,DRSC13309,2.2,2.9
tra,DRSC11405,-0.2,-0.3
TwdlQ,DRSC14745,0,-0.6
